Measured values reported in PMC3342315.
Results are given in words; binding and its absence hold for the method and conditions named. Binding seen in cells or lysates may run through a third protein. Some entries that bind do so weakly or less than the wild type. Sequences can lack the tags named with a protein.

Chains of the proteins cited; added tags and fusions are not shown.
UniProt P50221: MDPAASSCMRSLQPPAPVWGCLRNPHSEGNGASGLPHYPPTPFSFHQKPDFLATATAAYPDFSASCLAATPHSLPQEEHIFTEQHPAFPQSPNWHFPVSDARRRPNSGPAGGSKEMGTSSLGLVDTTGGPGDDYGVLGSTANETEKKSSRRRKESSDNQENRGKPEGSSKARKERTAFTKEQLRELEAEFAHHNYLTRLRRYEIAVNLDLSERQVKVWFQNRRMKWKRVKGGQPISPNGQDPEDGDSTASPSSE

Biological target: T1, PBX1-V5 (UniProt P40424)
T1 sequence: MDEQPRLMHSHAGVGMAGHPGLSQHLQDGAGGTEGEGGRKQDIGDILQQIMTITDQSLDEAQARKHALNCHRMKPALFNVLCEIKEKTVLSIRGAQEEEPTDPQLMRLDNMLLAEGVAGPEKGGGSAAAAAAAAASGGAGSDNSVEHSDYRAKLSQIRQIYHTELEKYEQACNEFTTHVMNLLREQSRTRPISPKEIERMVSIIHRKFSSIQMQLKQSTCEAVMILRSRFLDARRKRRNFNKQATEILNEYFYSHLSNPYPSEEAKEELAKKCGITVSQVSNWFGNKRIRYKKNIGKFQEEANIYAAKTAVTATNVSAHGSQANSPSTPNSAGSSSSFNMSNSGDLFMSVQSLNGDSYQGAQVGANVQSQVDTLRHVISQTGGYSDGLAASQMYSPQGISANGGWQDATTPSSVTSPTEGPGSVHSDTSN
Assay: co-IP; HEK293 cells transfected with PBX1-V5 and/or MEOX1-FLAG, harvested 24 h after transfection; lysis buffer 50 mM Tris pH 8.0, 150 mM NaCl, 1% NP40; lysates incubated with anti-V5 agarose or anti-FLAG M2 affinity gel; Western blot with anti-FLAG or anti-V5 antibody

binding: binds
Substance: MEOX1-FLAG (from UniProt P50221 1-254)
